# Experimental data taken from paper PMC8546558.
# These are yes or no findings as the source states them, for the method shown. Binding seen in cells or lysates may run through a third protein. Binding calls can cover weak binding; strength is not graded here. Where a sequence is shown, tags or fusion partners need not be part of it.
# Key:
# [1] = molecular target: T1, NisTHis (NisT C-terminally labeled by a 6×His tag) (Lactococcus lactis) (UniProt Q03203); test: pull-down; NisTHis held on Ni-NTA agarose from DDM-solubilised membrane; expression combinations: NisB_(flag) and NisC without NisA, NisB_(flag) alone, NisC alone; SDS-PAGE and Western blotting
# T1 sequence: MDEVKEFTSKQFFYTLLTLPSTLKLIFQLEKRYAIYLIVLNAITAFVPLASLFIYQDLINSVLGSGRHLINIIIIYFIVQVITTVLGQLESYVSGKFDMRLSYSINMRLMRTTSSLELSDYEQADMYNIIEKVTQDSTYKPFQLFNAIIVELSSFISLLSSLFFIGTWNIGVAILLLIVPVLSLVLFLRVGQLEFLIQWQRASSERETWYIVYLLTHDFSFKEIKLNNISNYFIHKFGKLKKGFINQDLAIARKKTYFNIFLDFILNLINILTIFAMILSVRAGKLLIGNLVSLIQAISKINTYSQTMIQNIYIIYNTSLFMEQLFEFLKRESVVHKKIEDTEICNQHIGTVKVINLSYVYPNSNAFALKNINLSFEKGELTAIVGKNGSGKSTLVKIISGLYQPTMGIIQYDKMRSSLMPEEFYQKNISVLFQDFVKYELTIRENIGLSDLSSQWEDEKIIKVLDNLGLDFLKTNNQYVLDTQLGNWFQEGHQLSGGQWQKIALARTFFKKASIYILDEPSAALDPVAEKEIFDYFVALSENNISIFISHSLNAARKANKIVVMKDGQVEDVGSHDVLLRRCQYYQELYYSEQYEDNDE
# [2] = molecular target: T2, NisCHis (6×His-tagged NisC) (Lactococcus lactis) (UniProt Q03202); test: pull-down; NisCHis held on Ni-NTA agarose from the cell lysate of L. lactis NZ9000 coexpressing NisB_(flag), NisB^G_(flag) or NisB^E_(flag), without NisA; SDS-PAGE and Western blotting with anti-Flag
# T2 sequence: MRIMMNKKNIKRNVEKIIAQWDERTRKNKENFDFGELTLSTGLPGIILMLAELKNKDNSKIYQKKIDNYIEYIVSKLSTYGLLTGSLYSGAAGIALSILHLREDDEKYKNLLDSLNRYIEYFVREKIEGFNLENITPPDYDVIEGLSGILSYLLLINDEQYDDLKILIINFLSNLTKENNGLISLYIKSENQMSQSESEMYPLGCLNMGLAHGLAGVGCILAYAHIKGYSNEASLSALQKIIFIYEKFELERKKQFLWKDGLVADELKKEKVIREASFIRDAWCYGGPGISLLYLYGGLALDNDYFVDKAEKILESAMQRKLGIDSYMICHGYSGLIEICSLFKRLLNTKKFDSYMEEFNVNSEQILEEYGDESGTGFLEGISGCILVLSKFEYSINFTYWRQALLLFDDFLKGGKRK
# [3] = molecular target: T1, NisTHis (NisT C-terminally labeled by a 6×His tag) (Lactococcus lactis); test: pull-down; NisTHis or NisT^H551AHis held on Ni-NTA agarose from DDM-solubilised cytoplasmic membrane of L. lactis NZ9000 coexpressing NisA, NisB_(flag) and NisC; 50 mM Tris-HCl, 300 mM NaCl, 0.1% DDM, pH 7.4, 4°C; elutions blotted with anti-Flag and anti-NisC
# [4] = molecular target: T1, NisTHis (NisT C-terminally labeled by a 6×His tag) (Lactococcus lactis); test: pull-down; NisTHis held on Ni-NTA agarose, coexpressed with NisB^G_(flag) or NisB^E_(flag) in L. lactis NZ9000; the legend says purified from the cell lysate; Western blotting with anti-His and anti-Flag
Substance,binding [1],binding [2],binding [3],binding [4]
"NisB^C, the C-terminal product of degraded NisB (Lactococcus lactis) (domain or fragment)",binds,binds,binds,
"NisB^E_(flag), the elimination domain of NisB (Lactococcus lactis) (domain or fragment)",,binds,,binds
"NisB^G_(flag), the glutamylation domain of NisB (Lactococcus lactis) (domain or fragment)",,binds,,binds
